Test results taken from paper PMC11066036.
No constants are given. Whether binding was seen depends on the method and setting.

Amino acid sequences for entries named in this document (tags omitted). A change or cut given only in a name is not applied to a line headed by its entry. Chains listed by the source or under a name are the forms on record and can include a tag or linker.
HPK1 kinase domain T165E/S171E (Q92918, form named): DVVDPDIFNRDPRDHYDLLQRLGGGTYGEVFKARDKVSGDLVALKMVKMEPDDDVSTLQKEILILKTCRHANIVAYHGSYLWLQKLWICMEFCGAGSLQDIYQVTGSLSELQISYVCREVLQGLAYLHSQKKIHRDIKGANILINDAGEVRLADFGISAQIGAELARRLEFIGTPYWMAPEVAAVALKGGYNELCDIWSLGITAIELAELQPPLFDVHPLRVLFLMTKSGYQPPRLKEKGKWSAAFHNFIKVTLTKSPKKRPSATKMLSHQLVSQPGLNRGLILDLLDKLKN

Target: HPK1 kinase domain T165E/S171E (KD TSEE WT) (UniProt Q92918)
Test: SPR; Biacore T200; KD TSEE WT amine-coupled (about 300 RU) on a C1 chip; WT-CHD and CHD mutants injected at 2 μM for 90 s; 20 mM HEPES, 300 mM NaCl, 0.1% polysorbate 20, 0.5 mM TCEP, pH 7.4; 25 °C; both purified

| Substance | binding |
| --- | --- |
| HPK1 CHD K558E ΔK574-K594 (from UniProt Q92918-2) (domain or fragment) | no binding (tested: 2 μM) |
| HPK1 CHD ΔK574-K594 (from UniProt Q92918-2) (domain or fragment) | no binding (tested: 2 μM) |
